Test results as given in patent publication US20250283871A1, “COMPOSITIONS AND METHODS FOR MODULATING THE INTERACTION BETWEEN SS18-SSX FUSION ONCOPROTEIN AND NUCLEOSOMES” (Dana-Farber Cancer Institute, Inc., priority 2020, published 2025).

B1: ABCF2 (protein, UniProt Q9UG63 1-623, looked up)
ATP-binding cassette …: MPSDLAKKKAAKKKEAAKARQRPRKGHEENGDVVTEPQVAEKNEANGRETTEVDLLTKELEDFEMKKAAARAVTGVLASHPNSTDVHIINLSLTFHGQELLSDTKLELNSGRRYGLIGLNGIGKSMLLSAIGKREVPIPEHIDIYHLTREMPPSDKTPLHCVMEVDTERAMLEKEAERLAHEDAECEKLMELYERLEELDADKAEMRASRILHGLGFTPAMQRKKLKDFSGGWRMRVALARALFIRPFMLLLDEPTNHLDLDACVWLEEELKTFKRILVLVSHSQDFLNGVCTNIIHMHNKKLKYYTGNYDQYVKTRLELEENQMKRFHWEQDQIAHMKNYIARFGHGSAKLARQAQSKEKTLQKMMASGLTERVVSDKTLSFYFPPCGKIPPPVIMVQNVSFKYTKDGPCIYNNLEFGIDLDTRVALVGPNGAGKSTLLKLLTGELLPTDGMIRKHSHVKIGRYHQHLQEQLDLDLSPLEYMMKCYPEIKEKEEMRKIIGRYGLTGKQQVSPIRNLSDGQKCRVCLAWLAWQNPHMLFLDEPTNHLDIETIDALADAINEFEGGMMLVSHDFRLIQQVAQEIWVCEKQTITKWPGDILAYKEHLKSKLVDEEPQLTKRTHNV
B2: MGAT2 (protein, UniProt Q10469 1-447, looked up)
Alpha-1,6-mannosyl-glycoprotei …: MRFRIYKRKVLILTLVVAACGFVLWSSNGRQRKNEALAPPLLDAEPARGAGGRGGDHPSVAVGIRRVSNVSAASLVPAVPQPEADNLTLRYRSLVYQLNFDQTLRNVDKAGTWAPRELVLVVQVHNRPEYLRLLLDSLRKAQGIDNVLVIFSHDFWSTEINQLIAGVNFCPVLQVFFPFSIQLYPNEFPGSDPRDCPRDLPKNAALKLGCINAEYPDSFGHYREAKFSQTKHHWWWKLHFVWERVKILRDYAGLILFLEEDHYLAPDFYHVFKKMWKLKQQECPECDVLSLGTYSASRSFYGMADKVDVKTWKSTEHNMGLALTRNAYQKLIECTDTFCTYDDYNWDWTLQYLTVSCLPKFWKVLVPQIPRIFHAGDCGMHHKKTCRPSTQSAQIESLLNNNKQYMFPETLTISEKFTVVAISPPRKNGGWGDIRDHELCKSYRRLQ
B3: ORC3 (protein, UniProt Q9UBD5 1-711, looked up)
Origin recognition complex …: MATSSMSKGCFVFKPNSKKRKISLPIEDYFNKGKNEPEDSKLRFETYQLIWQQMKSENERLQEELNKNLFDNLIEFLQKSHSGFQKNSRDLGGQIKLREIPTAALVLGVNVTDHDLTFGSLTEALQNNVTPYVVSLQAKDCPDMKHFLQKLISQLMDCCVDIKSKEEESVHVTQRKTHYSMDSLSSWYMTVTQKTDPKMLSKKRTTSSQWQSPPVVVILKDMESFATKVLQDFIIISSQHLHEFPLILIFGIATSPIIIHRLLPHAVSSLLCIELFQSLSCKEHLTTVLDKLLLTTQFPFKINEKVLQVLTNIFLYHDFSVQNFIKGLQLSLLEHFYSQPLSVLCCNLPEAKRRINFLSNNQCENIRRLPSFRRYVEKQASEKQVALLTNERYLKEETQLLLENLHVYHMNYFLVLRCLHKFTSSLPKYPLGRQIRELYCTCLEKNIWDSEEYASVLQLLRMLAKDELMTILEKCFKVFKSYCENHLGSTAKRIEEFLAQFQSLDETKEEEDASGSQPKGLQKTDLYHLQKSLLEMKELRRSKKQTKFEVLRENVVNFIDCLVREYLLPPETQPLHEVVYFSAAHALREHLNAAPRIALHTALNNPYYYLKNEALKSEEGCIPNIAPDICIAYKLHLECSRLINLVDWSEAFATVVTAAEKMDANSATSEEMNEIIHARFIRAVSELELLGFIKPTKQKTDHVARLTWGGC
B4: ATP5J2 (protein, UniProt P56134 2-94, looked up)
ATP synthase F(0) complex …: ASVGECPAPVPVKDKKLLEVKLGELPSWILMRDFSPSGIFGAFQRGYYRYYNKYINVKKGSISGITMVLACYVLFSYSFSYKHLKHERLRKYH
B5: ETFB (protein, UniProt P38117 2-255, looked up)
Electron transfer …: AELRVLVAVKRVIDYAVKIRVKPDRTGVVTDGVKHSMNPFCEIAVEEAVRLKEKKLVKEVIAVSCGPAQCQETIRTALAMGADRGIHVEVPPAEAERLGPLQVARVLAKLAEKEKVDLVLLGKQAIDDDCNQTGQMTAGFLDWPQGTFASQVTLEGDKLKVEREIDGGLETLRLKLPAVVTADLRLNEPRYATLPNIMKAKKKKIEVIKPGDLGVDLTSKLSVISVEDPPQRTAGVKVETTEDLVAKLKEIGRI
B6: NOM1 (protein, UniProt Q5C9Z4 1-860, looked up)
Nucleolar MIF4G …: MAASRSAGEAGPGGSQGRVVRMKRRGGRGPRRGPAGGGEKALKRLKLAVEEFVHATSEGEAPGGCEGRGAPVSFRPGGRKSRKELRKEKRHLRKARRLQRTAGPEQGPGLGGRSGAEEASGHRQDTEERARPAPSRDPSPPRKPRPSRVKAKATAATAKTRPSAAATAAARKRALLAANEEEDREIRKLERCLGLNKRKKKDGSSSVPLSFARDGLDYILGALESGKNSGLYDSSGEEEEDAGQTLPESDLESDSQDESEEEEEGDVEKEKKAQEAEAQSEDDDEDTEEEQGEEKEKGAQEKRRGKRVRFAEDEEKSENSSEDGDITDKSLCGSGEKYIPPHVRQAEETVDFKKKEELERLKKHVKGLLNRLSEPNMASISGQLEELYMAHSRKDMNDTLTSALMGACVTASAMPSRLMMEHVLLVSILHHTVGIEVGAHFLEAVVRKFDAIYKYGSEGKECDNLFTVIAHLYNFHVVQSLLIFDILKKLIGTFTEKDIELILLMLKNVGFSLRKDDALSLKELITEAQTKASGAGSEFQDQTRIRFMLETMLALKNNDMRKIPGYDPEPVEKLRKLQRALVRNAGSGSETQLRVSWDSVLSAEQTGRWWIVGSAWSGAPMIDNSHHTHLQKQLVGTVSSKILELARKQRMNTDIRRNIFCTIMTSEDFLDAFEKLLKLGLKDQQEREIIHVLMDCCLQEKTYNPFYAFLASKFCEYERRFQMTFQFSIWDKFRDLENLPATNFSNLVHLVAHLLKTKSLSLSILKVVEFSELDKPRVRFLRKVLSILLMETEVEDLSLIFTRVSDNPKLGVLREGLKLFISHFLLKNAQAHRSADEANVLREKADLATKCLQGKASLRM
B7: HM13 (protein, UniProt Q8TCT9 1-377, looked up)
Signal peptide peptidase: MDSALSDPHNGSAEAGGPTNSTTRPPSTPEGIALAYGSLLLMALLPIFFGALRSVRCARGKNASDMPETITSRDAARFPIIASCTLLGLYLFFKIFSQEYINLLLSMYFFVLGILALSHTISPFMNKFFPASFPNRQYQLLFTQGSGENKEEIINYEFDTKDLVCLGLSSIVGVWYLLRKHWIANNLFGLAFSLNGVELLHLNNVSTGCILLGGLFIYDVFWVFGTNVMVTVAKSFEAPIKLVFPQDLLEKGLEANNFAMLGLGDVVIPGIFIALLLRFDISLKKNTHTYFYTSFAAYIFGLGLTIFIMHIFKHAQPALLYLVPACIGFPVLVALAKGEVTEMFSYEESNPKDPAAVTESKEGTEASASKGLEKKEK
B8: SLC25A32 (protein, UniProt Q9H2D1 1-315, looked up)
Solute carrier family 25 …: MTGQGQSASGSSAWSTVFRHVRYENLIAGVSGGVLSNLALHPLDLVKIRFAVSDGLELRPKYNGILHCLTTIWKLDGLRGLYQGVTPNIWGAGLSWGLYFFFYNAIKSYKTEGRAERLEATEYLVSAAEAGAMTLCITNPLWVTKTRLMLQYDAVVNSPHRQYKGMFDTLVKIYKYEGVRGLYKGFVPGLFGTSHGALQFMAYELLKLKYNQHINRLPEAQLSTVEYISVAALSKIFAVAATYPYQVVRARLQDQHMFYSGVIDVITKTWRKEGVGGFYKGIAPNLIRVTPACCITFVVYENVSHFLLDLREKRK
B9: GUF1 (protein, UniProt Q8N442 50-669, looked up)
Translation factor GUF1, …: SSAEFKEKLDMSRFPVENIRNFSIVAHVDHGKSTLADRLLELTGTIDKTKNNKQVLDKLQVERERGITVKAQTASLFYNCEGKQYLLNLIDTPGHVDFSYEVSRSLSACQGVLLVVDANEGIQAQTVANFFLAFEAQLSVIPVINKIDLKNADPERVENQIEKVFDIPSDECIKISAKLGTNVESVLQAIIERIPPPKVHRKNPLRALVFDSTFDQYRGVIANVALFDGVVSKGDKIVSAHTQKTYEVNEVGVLNPNEQPTHKLYAGQVGYLIAGMKDVTEAQIGDTLCLHKQPVEPLPGFKSAKPMVFAGMYPLDQSEYNNLKSAIEKLTLNDSSVTVHRDSSLALGAGWRLGFLGLLHMEVFNQRLEQEYNASVILTTPTVPYKAVLSSSKLIKEHREKEITIINPAQFPDKSKVTEYLEPVVLGTIITPDEYTGKIMMLCEARRAVQKNMIFIDQNRVMLKYLFPLNEIVVDFYDSLKSLSSGYASFDYEDAGYQTAELVKMDILLNGNTVEELVTVVHKDKAHSIGKAICERLKDSLPRQLFEIAIQAAIGSKIIARETVKAYRKNVLAKCYGGDITRKMKLLKRQAEGKKKLRKIGNVEVPKDAFIKVLKTQSSK
B10: LPCAT1 (protein, UniProt Q8NF37 1-534, looked up)
Lysophosphatidylcholine …: MRLRGCGPRAAPASSAGASDARLLAPPGRNPFVHELRLSALQKAQVALMTLTLFPVRLLVAAAMMLLAWPLALVASLGSAEKEPEQPPALWRKVVDFLLKAIMRTMWFAGGFHRVAVKGRQALPTEAAILTLAPHSSYFDAIPVTMTMSSIVMKAESRDIPIWGTLIQYIRPVFVSRSDQDSRRKTVEEIKRRAQSNGKWPQIMIFPEGTCTNRTCLITFKPGAFIPGAPVQPVVLRYPNKLDTITWTWQGPGALEILWLTLCQFHNQVEIEFLPVYSPSEEEKRNPALYASNVRRVMAEALGVSVTDYTFEDCQLALAEGQLRLPADTCLLEFARLVRGLGLKPEKLEKDLDRYSERARMKGGEKIGIAEFAASLEVPVSDLLEDMFSLFDESGSGEVDLRECVVALSVVCRPARTLDTIQLAFKMYGAQEDGSVGEGDLSCILKTALGVAELTVTDLFRAIDQEEKGKITFADFHRFAEMYPAFAEEYLYPDQTHFESCAETSPAPIPNGFCADFSPENSDAGRKPVRKKLD

Test system: BAF complex subunits and histone proteins
Assay: Mass spectrometry proteomics of purified HA-SS18 WT and HA-SS18-SSX1 complexes (Tables 5A-5E)
Design: species or system human
[1] = HA-SS18SSX1_NE_peptides: protein co-purified with HA-SS18-SSX1 BAF complexes from soluble nuclear extract (NE), HEK-293T cells
[2] = HA-SS18WT_NE_peptides: proteins co-purified with HA-SS18 WT from nuclear extract (NE), HEK-293T
[3] = HA-SS18WT_CHR_peptides: protein identified in HA-SS18 WT BAF complex purification from nuclease-treated solubilized chromatin (CHR), HEK-293T
[4] = HA-SS18WT_NE_peptides: HA-SS18 WT complexes purified from nuclear extract (NE), HEK-293T, label = protein identified (Gene Symbol)

Molecule | Total (peptides) [1] | Unique (peptides) [1] | Total (peptides) [2] | Unique (peptides) [2] | Total (total peptides) [3] | Unique (unique peptides) [3] | Total (peptides) [4] | Unique (peptides) [4]
B1 | 2 | 2 |  |  |  |  |  | 
B2 | 2 | 2 | 2 | 2 |  |  |  | 
B3 | 2 | 2 | 1 | 1 |  |  |  | 
B4 | 2 | 2 | 2 | 2 | 1 | 1 |  | 
B5 | 2 | 2 | 2 | 2 |  |  |  | 
B6 | 2 | 2 | 1 | 1 |  |  |  | 
B7 | 2 | 2 |  |  |  |  | 3 | 2
B8 | 2 | 2 |  |  |  |  |  | 
B9 | 2 | 2 | 1 | 1 |  |  |  | 
B10 | 2 | 2 |  |  |  |  | 2 | 2
